Results on two molecules are retold here after paper doi:10.1101/2023.10.13.562155 (bioRxiv, 2023).

Protein sequences, listed by entry. Tags and fused reporters are not part of them. Lines headed by an entry give the natural chain unless they say otherwise; changes in a name come on top. Residues count along the entry.
UniProt Q9Z0W1, 32-427: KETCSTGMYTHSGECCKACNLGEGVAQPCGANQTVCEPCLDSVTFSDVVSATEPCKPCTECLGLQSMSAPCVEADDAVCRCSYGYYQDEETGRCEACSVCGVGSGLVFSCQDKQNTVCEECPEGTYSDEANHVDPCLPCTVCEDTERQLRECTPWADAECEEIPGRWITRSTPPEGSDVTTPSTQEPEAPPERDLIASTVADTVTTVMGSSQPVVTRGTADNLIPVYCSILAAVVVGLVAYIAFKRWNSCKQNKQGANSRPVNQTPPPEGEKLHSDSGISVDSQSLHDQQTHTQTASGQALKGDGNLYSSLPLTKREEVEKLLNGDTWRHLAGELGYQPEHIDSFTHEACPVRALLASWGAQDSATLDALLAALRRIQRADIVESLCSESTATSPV
UniProt Q9Z0W1, whole entry, looked up, stated change not applied: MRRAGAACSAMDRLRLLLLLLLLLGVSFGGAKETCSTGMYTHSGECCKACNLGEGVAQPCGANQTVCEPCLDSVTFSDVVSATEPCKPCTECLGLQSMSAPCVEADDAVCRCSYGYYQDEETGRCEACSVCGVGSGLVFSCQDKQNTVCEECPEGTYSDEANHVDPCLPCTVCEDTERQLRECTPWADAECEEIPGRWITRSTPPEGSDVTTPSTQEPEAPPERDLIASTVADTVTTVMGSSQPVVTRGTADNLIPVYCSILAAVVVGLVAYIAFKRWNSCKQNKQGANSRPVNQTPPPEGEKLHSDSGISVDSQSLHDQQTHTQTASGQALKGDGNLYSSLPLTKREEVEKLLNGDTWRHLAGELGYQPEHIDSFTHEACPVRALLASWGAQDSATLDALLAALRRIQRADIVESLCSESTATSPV
UniProt P58801, whole entry: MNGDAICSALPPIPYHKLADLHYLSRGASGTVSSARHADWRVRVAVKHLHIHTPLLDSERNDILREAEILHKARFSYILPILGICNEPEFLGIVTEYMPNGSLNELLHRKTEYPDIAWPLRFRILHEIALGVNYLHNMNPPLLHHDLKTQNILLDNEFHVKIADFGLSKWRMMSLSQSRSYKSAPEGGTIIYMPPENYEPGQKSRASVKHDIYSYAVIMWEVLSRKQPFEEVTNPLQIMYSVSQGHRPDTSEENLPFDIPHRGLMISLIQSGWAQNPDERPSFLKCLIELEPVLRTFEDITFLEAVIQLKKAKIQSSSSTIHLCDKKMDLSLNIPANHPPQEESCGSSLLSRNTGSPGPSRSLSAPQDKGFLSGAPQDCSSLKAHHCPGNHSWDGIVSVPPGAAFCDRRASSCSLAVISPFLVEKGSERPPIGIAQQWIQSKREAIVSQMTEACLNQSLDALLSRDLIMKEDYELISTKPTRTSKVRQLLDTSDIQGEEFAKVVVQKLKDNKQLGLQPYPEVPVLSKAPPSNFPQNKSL

Like-named read-outs stand apart in the source and are kept apart here. No constants are given. Whether binding was seen depends on the method and setting. Binding seen in cells or lysates may run through a third protein. Some results given as binding are weak or reduced against the parent protein; the word gives no strength. For part of these data: Where a sequence is shown, tags or fusion partners need not be part of it.

Test in all cases: co-IP
Assay [1] concerns the target p75 neurotrophin receptor (p75^NTR), endogenous in cerebellar granule neurons (mouse (endogenous in P7 CGNs)) (UniProt Q9Z0W1).
The target is the same in assay [2]. This is another data set of the same source.
Assay [3] has as its target mouse p75^NTR K303D (mouse) (UniProt Q9Z0W1).
Assay [4] has as its target mouse p75^NTR V246N (cleavage-resistant, γ-secretase mutant variant) (mouse) (UniProt Q9Z0W1).
Assay [5] has as its target mouse p75^NTR wild type, transfected in NIH3T3 cells (mouse) (UniProt Q9Z0W1).
In assay [6] the target is mouse p75^NTR K282A/K285A double mutant (mouse) (UniProt Q9Z0W1).

For “RIP2, endogenous in cerebellar granule neurons (from UniProt P58801 1-539)”, the binding entry in assay [1] is recorded as “no binding (condition: with PMA)”; in assay [2], “binds”.

B1: Flag-tagged mouse RhoGDI wild type (protein, UniProt Q99PT1 1-204)
chain: MAEQEPTAEQLAQIAAENEEDEHSVNYKPPAQKSIQEIQELDKDDESLRKYKEALLGRVAVSADPNVPNVIVTRLTLVCSTAPGPLELDLTGDLESFKKQSFVLKEGVEYRIKISFRVNREIVSGMKYIQHTYRKGVKIDKTDYMVGSYGPRAEEYEFLTPMEEAPKGMLARGSYNIKSRFTDDDKTDHLSWEWNLTIKKEWKD
For the molecule B1, the binding entry in assay [3] was “no binding”; in assay [4], “binds”; in assay [5], “binds”; in assay [6] it was “binds”.
